Screen size: about 300,000 compounds; about 3,700 (1.2%) were called active. The shares of active, inactive and inconclusive entries below differ from those in the screen. Calls follow the shape of the full dose curve; tested in HEK293 cells. Potencies beside an inconclusive call are fits to weak or partial responses and may not hold up.
Experiment: qHTS for Inhibitors of binding or entry into cells for Lassa Virus; also: nearly all actives have a fitted effect of over 50% in size
Settings: Lassa virus pseudotype entry inhibition, cell reporter; activity change, negative = inhibition: at 37.9 µM (top of the series) unless noted
% is scaled to controls: 0 for no effect and ±100 for the full control effect; potency is read from the fitted curve at half-maximal effect.

SMILES	Potency	activity change, negative = inhibition
CCOC(=O)C(C(=O)OCC)c1cc(Br)c2noc3c2c1C(=O)c1ccccc1-3	active: 11.2 µM	
CCC(=O)N1N=C(c2c(O)n(CCc3ccccc3)c(=O)[nH]c2=O)CC1c1ccc(OC)c(OC)c1 (stereo not drawn)	inconclusive: 35.5 µM [inhibitor, single point]	
CC(C)CCn1c(O)c(N=Nc2ccccn2)c2ccccc21	inconclusive: 35.5 µM [inhibitor, single point]	
COc1ccc2ccccc2c1/C=N\NC(=O)c1cccnc1	inconclusive: 3.98 µM [inhibitor, single point]	
Cn1c(CN2CCOCC2)nnc1SCC(=O)NCCc1ccccc1		inactive: -2.29%
Cc1ccc(C2c3c(-c4ccccc4O)n[nH]c3C(=O)N2CCc2ccccc2)cc1 (stereo not drawn)	inconclusive: 1 µM [inhibitor, full curve, poor fit]	
O=S(=O)(Oc1ccccc1-c1ccccc1)c1ccccc1	inconclusive: 35.5 µM [inhibitor, single point]	
COc1cccc(CNC(=O)Cn2nc3c(cc2=O)CCCC3)c1OC		inactive: -3.63% [at 46.1 µM]
CC1(C)CC(c2nc(-c3ccccc3)cs2)CCS1 (stereo not drawn)	inconclusive: 35.5 µM [inhibitor, single point]	
Nc1cc(S(=O)(=O)N2CCOCC2)ccc1N1CCCCC1	inconclusive: 22.4 µM [inhibitor, single point]	
CCCC1=Nc2cc(C(=O)NCC(C)c3ccccc3)ccc2Sc2ccccc21 (stereo not drawn)	inconclusive: 12.6 µM [inhibitor, partial curve, poor fit]	
COc1ccc(COC(=O)c2ccc(Br)c(S(=O)(=O)N3CCOCC3)c2)cc1F	inconclusive: 10 µM [inhibitor, partial curve]	
CCOc1ccc(CNC(=O)Cn2cc3c(n2)-c2c(oc(C(=O)N4CCCC4)c2C)CC3)cc1	inconclusive: 7.08 µM [inhibitor, partial curve, poor fit]	
COc1ccccc1NC(c1cccnc1)c1ccc2cccnc2c1O (stereo not drawn)	inconclusive: 32.6 µM [inhibitor, single point]	
Cc1nn(-c2ccccc2)nc1C(N)=O		inactive: 22.7% [at 46.1 µM]
Cc1nc(SCC(=O)Nc2ccc(S(=O)(=O)N3CCOCC3)cc2)c2c(C)c(C)sc2n1	active: 1.12 µM	
Cc1onc(-c2ccccc2)c1C(=O)OCC(=O)N(CC(C)C)c1c(N)n(Cc2ccccc2)c(=O)[nH]c1=O	inconclusive: 5.01 µM [inhibitor, partial curve]	
O=C(/C=C/c1ccc2c(c1)OCO2)NCC1CCCO1 (stereo not drawn)	inconclusive: 35.5 µM [inhibitor, single point]	

2 of the compounds above, in markdown:

| SMILES | Potency | activity change, negative = inhibition |
| --- | --- | --- |
| CC(C)CCn1c(O)c(N=Nc2ccccn2)c2ccccc21 | inconclusive: 35.5 µM [inhibitor, single point] |  |
| Cc1ccc(C2c3c(-c4ccccc4O)n[nH]c3C(=O)N2CCc2ccccc2)cc1 (stereo not drawn) | inconclusive: 1 µM [inhibitor, full curve, poor fit] |  |

— PubChem BioAssay AID540256 (National Center for Advancing Translational Sciences (NCATS), 2011)
